Laboratory results as given in PMC4395418, “The Aspartate-Less Receiver (ALR) Domains: Distribution, Structure and Function” (PLoS Pathogens, 2015).
These are yes or no findings as the source states them, for the method shown.

T1: Repressor of Iron Transport Regulator (RitR), full-length, wild-type (Streptococcus pneumoniae strain R800), A0ACD7
T1 chain: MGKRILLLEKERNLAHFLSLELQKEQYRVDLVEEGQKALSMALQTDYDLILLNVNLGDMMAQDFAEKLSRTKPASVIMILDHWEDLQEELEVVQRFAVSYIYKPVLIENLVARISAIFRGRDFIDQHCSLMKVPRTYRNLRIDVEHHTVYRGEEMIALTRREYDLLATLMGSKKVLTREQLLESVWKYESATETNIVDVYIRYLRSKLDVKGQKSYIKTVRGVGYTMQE

B1: Repressor of Iron Transport Regulator (RitR), full-length, wild-type, A0ACD7PPZ9 1-229 (protein)
chain: MGKRILLLEKERNLAHFLSLELQKEQYRVDLVEEGQKALSMALQTDYDLILLNVNLGDMMAQDFAEKLSRTKPASVIMILDHWEDLQEELEVVQRFAVSYIYKPVLIENLVARISAIFRGRDFIDQHCSLMKVPRTYRNLRIDVEHHTVYRGEEMIALTRREYDLLATLMGSKKVLTREQLLESVWKYESATETNIVDVYIRYLRSKLDVKGQKSYIKTVRGVGYTMQE

How the values were obtained:
[1] = target: RitR ALR (REC) receiver domain, wild-type (Streptococcus pneumoniae strain R800); assay: crystal structure; RitRALR, hanging drop, space group P1, 1.6 A; both purified
[2] = target: RitR ALR (REC) receiver domain, wild-type (Streptococcus pneumoniae strain R800); assay: SEC; purified 15N-labelled RitRALR (ALR domain only) wild-type and Ala mutants; oligomeric state; both purified
[3] = target: RitR ALR (REC) receiver domain, wild-type (Streptococcus pneumoniae strain R800); assay: NMR (1H-15N HSQC and three-dimensional spectra compared between wild type and mutants); RitRALR variants in 40 mM 2H-Tris-HCl pH 7.6, 300 mM NaCl, 10% D2O, 0.02% NaN3; 600 MHz, 25 C; both purified
[4] = target: T1, Repressor of Iron Transport Regulator …; assay: SEC; RitRFL wild-type and mutants; Agilent 1220 HPLC, BioBasic SEC-300A column, 50 mM TRIS pH 8.0, 150 mM NaCl, 10 mM DTT; proteins pre-treated with 10 mM DTT; 0.5 ml/min, ambient temperature; both purified; settings: remark: other sources report otherwise

| Molecule | binding [1] | binding [2] | binding [3] | binding [4] |
| --- | --- | --- | --- | --- |
| RitR ALR (REC) receiver domain, wild-type (from UniProt A0ACD7PPZ9 1-124) (domain or fragment) | no binding | no binding | no binding |  |
| B1 |  |  |  | no binding |
